Assay: Degreasing of sinterized metal parts followed by solvent evaporation
Conditions: 3 h

Row | SMILES | Percentage of mass loss (%) (Immersion, 110° C., evaporation 120° C.) | Percentage of mass loss (%) (Ultrasound, 58° C., evaporation 3 h at 120° C., P < 1 mmHg)
1 | ClC=C(Cl)Cl [Trichloroethylene, reference compound] | 0.93 | 
2 | CCCCOC(=O)CCC(C)=O [LAOC-4, Butyl levulinate] |  | 0.97
